PubChem BioAssay (EPA / NIEHS)
“And” between values parts separate entries of the source, which are not always exact repeats. Equal entries are not always repeated. This list was built around the results that the source calls inconclusive (neither active nor inactive); the mix of calls is not that of the screen. Potencies beside an inconclusive call are fits to weak or partial responses and may not hold up. Some structures have more than one record in an assay (separate samples or runs), and their calls can disagree. The source made the active and inactive calls. Rule for the calls: active = hit-call score of the fitted dose curve at least 0.9, where 1 is the maximum; inconclusive = response in the unintended direction; inactive = score below 0.9.

Chains of the proteins cited; added tags and fusions are not shown. Lines headed by an entry give the natural chain unless they say otherwise; changes in a name come on top.
UniProt P37231: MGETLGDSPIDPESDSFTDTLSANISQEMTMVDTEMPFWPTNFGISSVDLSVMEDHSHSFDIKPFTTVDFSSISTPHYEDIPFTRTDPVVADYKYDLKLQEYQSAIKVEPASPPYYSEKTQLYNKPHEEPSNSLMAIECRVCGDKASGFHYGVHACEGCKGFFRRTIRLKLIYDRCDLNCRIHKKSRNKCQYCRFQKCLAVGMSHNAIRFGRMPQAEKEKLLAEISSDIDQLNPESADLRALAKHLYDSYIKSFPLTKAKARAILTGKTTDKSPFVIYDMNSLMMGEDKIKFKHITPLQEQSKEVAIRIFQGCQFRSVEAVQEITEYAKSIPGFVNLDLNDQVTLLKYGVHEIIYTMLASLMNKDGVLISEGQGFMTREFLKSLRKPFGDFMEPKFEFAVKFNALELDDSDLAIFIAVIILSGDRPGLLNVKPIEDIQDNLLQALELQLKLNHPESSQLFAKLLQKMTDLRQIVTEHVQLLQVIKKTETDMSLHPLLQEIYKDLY
UniProt O75469: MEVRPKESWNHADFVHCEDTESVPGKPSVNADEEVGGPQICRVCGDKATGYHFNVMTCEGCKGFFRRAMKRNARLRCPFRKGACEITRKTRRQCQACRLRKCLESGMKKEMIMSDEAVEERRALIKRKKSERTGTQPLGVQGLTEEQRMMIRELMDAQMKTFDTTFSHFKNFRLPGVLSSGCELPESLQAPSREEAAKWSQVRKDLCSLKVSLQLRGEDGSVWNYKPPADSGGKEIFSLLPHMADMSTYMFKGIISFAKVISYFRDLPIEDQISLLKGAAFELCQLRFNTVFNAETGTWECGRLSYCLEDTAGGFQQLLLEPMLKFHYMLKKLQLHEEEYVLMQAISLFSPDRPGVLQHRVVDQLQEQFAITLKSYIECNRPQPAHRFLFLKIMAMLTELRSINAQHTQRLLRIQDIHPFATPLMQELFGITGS
UniProt P13631, whole entry, looked up: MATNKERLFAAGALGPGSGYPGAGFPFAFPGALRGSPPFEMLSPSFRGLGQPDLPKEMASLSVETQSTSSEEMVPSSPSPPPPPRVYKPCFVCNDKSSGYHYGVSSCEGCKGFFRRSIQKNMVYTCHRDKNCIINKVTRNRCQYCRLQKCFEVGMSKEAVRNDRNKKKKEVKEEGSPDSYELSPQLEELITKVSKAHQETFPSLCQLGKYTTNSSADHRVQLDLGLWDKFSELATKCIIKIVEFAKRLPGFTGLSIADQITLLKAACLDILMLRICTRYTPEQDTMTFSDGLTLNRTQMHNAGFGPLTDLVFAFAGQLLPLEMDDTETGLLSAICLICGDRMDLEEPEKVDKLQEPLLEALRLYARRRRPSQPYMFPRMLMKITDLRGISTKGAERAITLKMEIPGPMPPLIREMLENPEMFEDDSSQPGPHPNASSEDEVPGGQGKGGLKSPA
UniProt Q92753: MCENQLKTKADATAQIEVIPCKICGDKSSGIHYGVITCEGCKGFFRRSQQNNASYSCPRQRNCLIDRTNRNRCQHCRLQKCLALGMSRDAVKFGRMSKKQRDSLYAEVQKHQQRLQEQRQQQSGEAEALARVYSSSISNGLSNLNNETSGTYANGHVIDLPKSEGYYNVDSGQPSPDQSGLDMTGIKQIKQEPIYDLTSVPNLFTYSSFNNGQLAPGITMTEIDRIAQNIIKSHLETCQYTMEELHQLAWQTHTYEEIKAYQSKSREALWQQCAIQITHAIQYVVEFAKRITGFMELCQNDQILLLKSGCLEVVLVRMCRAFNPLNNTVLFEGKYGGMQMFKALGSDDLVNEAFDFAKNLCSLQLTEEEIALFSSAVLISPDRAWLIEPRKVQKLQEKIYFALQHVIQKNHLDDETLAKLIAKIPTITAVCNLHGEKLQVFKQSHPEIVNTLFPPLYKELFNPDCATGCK
UniProt P51449: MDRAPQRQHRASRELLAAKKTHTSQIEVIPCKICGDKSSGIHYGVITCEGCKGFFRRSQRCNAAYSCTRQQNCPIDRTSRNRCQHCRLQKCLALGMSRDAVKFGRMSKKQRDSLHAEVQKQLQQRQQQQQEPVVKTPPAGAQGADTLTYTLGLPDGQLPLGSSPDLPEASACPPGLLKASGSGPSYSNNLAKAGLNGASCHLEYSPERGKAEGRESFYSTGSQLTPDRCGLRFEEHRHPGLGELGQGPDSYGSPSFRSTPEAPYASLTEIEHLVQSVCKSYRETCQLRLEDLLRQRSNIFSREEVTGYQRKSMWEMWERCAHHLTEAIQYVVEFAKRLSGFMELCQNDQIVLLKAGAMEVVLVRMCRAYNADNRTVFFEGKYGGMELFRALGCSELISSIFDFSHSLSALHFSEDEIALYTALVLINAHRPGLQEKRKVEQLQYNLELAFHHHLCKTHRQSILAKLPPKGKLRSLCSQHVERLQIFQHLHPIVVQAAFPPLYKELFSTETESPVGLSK
UniProt P19793: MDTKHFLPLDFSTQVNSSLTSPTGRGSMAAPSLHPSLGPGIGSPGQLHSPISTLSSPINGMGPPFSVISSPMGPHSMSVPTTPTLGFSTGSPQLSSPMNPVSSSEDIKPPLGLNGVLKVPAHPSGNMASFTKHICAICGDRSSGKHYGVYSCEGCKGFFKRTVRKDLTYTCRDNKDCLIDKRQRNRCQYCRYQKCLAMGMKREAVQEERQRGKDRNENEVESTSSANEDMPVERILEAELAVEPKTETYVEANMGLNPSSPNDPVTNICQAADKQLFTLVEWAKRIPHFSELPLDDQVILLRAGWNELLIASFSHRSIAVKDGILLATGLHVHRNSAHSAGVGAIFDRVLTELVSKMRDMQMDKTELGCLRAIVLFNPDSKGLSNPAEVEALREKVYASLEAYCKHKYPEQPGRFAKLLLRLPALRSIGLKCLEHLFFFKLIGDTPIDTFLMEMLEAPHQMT
UniProt P28702: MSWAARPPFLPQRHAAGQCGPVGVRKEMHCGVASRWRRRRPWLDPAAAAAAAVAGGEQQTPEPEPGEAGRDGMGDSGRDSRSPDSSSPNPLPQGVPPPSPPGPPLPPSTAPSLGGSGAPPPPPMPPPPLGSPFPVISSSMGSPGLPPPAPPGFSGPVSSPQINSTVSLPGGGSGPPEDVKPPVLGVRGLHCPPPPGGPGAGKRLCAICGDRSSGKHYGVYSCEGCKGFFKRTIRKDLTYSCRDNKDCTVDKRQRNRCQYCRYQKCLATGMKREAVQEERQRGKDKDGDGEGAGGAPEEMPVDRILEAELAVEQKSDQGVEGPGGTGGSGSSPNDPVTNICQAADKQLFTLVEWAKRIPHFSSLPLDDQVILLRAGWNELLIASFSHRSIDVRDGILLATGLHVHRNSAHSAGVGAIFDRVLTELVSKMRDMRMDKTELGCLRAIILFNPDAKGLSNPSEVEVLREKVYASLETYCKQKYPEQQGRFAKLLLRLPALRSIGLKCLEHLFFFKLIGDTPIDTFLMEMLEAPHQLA
UniProt P10827: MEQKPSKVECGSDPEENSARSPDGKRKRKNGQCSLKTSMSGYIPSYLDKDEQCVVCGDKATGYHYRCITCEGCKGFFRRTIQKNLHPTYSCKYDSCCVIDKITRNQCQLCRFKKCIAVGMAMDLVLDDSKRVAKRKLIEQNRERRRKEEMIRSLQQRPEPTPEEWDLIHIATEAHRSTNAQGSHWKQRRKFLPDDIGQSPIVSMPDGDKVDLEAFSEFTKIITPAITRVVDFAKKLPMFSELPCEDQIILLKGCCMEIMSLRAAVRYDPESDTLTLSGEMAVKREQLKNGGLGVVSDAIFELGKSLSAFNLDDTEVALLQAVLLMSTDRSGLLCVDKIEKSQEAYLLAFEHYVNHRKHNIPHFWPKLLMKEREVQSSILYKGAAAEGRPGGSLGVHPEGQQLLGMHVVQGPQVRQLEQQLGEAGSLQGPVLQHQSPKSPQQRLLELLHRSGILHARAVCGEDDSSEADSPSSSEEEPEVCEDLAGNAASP
UniProt P11473: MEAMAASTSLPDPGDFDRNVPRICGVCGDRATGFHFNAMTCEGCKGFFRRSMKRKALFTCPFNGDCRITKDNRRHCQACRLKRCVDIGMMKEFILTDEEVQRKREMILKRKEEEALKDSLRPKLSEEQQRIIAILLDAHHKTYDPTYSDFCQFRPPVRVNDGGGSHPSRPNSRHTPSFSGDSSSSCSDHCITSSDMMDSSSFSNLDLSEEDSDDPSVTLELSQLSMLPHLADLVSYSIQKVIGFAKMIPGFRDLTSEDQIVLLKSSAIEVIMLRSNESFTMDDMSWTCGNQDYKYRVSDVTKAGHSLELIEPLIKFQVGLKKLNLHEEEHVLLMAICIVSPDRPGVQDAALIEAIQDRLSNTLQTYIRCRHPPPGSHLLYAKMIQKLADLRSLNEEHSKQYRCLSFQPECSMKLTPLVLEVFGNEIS
UniProt P11511: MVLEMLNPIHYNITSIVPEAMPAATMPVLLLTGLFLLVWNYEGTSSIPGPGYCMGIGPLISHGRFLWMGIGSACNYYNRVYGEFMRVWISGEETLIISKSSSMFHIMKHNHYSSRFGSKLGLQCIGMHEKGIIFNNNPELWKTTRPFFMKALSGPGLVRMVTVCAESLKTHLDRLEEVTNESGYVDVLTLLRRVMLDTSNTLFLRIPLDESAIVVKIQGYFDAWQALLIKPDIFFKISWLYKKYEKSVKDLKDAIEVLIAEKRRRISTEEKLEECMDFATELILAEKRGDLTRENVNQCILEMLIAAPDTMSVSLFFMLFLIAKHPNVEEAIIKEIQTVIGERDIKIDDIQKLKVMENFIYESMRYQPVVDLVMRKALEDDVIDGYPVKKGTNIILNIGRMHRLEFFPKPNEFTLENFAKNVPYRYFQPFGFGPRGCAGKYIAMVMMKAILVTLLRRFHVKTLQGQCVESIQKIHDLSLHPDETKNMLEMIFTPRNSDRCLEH

Assays:
[1] = target: Peroxisome proliferator-activated receptor gamma (Homo sapiens) (UniProt P37231); test: ATG_PPARg_TRANS: Attagene TRANS-FACTORIAL HepG2 Assay for human Peroxisome Proliferator-activated Receptor-gamma (PPARg) (AID 2283007)
In short: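 Endpoint reflects upward reporter mRNA change versus DMSO controls. Setup: transiently transfected HepG2, GAL4-UAS reporters driven by chimeric NR-Gal4, 24 h incubation, RT-PCR with capillary electrophoresis read-out.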

[2] = target: Nuclear receptor subfamily 1 group I member 2 (Homo sapiens) (UniProt O75469); test: ATG_PXR_TRANS: Attagene TRANS-FACTORIAL HepG2 Assay for human Pregnane X Receptor (PXR) (AID 2283008)
In short: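 Measures mRNA induction of a GAL4-UAS-driven reporter in human HepG2 cells transiently expressing PXR fused to Gal4, following 24 h treatment. DMSO served as negative control and baseline.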

[3] = target: human Retinoic Acid Receptor gamma (RARg), RARG (gene 5916) (UniProt P13631); test: ATG_RARg_TRANS: Attagene TRANS-FACTORIAL HepG2 Assay for human Retinoic Acid Receptor gamma (RARg) (AID 2283009);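 for AC50: AC50 is for reporter induction above DMSO meaning RARg activation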
In short: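 HepG2 cells transiently transfected with multiplexed reporter units expressing chimeric RARg-GAL4 and GAL4-UAS-driven reporters; 24 h compound exposure. Reporter mRNA quantified by RT-PCR with fluorescent labelling and capillary electrophoresis; gain-of-signal fitted relative to DMSO baseline.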

[4] = target: human RAR-related Orphan Receptor beta (RORb), RORB (gene 6096) (UniProt Q92753); test: ATG_RORb_TRANS: Attagene TRANS-FACTORIAL HepG2 Assay for human RAR-related Orphan Receptor beta (RORb) (AID 2283010);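 for AC50: potency for increased reporter mRNA meaning activation of RORb-Gal4 chimera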
In short: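 HepG2 cells were transiently transfected with multiplexed GAL4-UAS reporter units expressing chimeric nuclear receptor–GAL4 proteins, then dosed for 24 h. Reporter mRNA was quantified by RT-PCR with fluorescent labelling and capillary electrophoresis; gain of signal was fitted relative to DMSO.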

[5] = target: human RAR-related Orphan Receptor gamma (RORg), RORC (gene 6097) (UniProt P51449); test: ATG_RORg_TRANS: Attagene TRANS-FACTORIAL HepG2 Assay for human RAR-related Orphan Receptor gamma (RORg) (AID 2283011);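 for AC50: potency for induction of reporter transcripts above DMSO so activators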
In short: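 Readout: reporter transcript induction (RT-PCR, fluorescent primer extension, capillary electrophoresis) after 24 h compound exposure of transiently transfected HepG2 cells carrying a RORg-Gal4 chimera and GAL4-UAS reporters; DMSO served as baseline, with increasing signal fitted.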

[6] = target: Retinoic acid receptor RXR-alpha (Homo sapiens) (UniProt P19793); test: ATG_RXRa_TRANS: Attagene TRANS-FACTORIAL HepG2 Assay for human Retinoid X Receptor alpha (RXRa) (AID 2283012)
In short: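 HepG2 cells transiently transfected with multiplexed GAL4-UAS reporter units and chimeric NR-GAL4 fusions, dosed 24 h. Reporter mRNA measured by RT-PCR, FAM labelling, HpaI digestion and capillary electrophoresis; gain-of-signal fitted relative to DMSO baseline.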

[7] = target: human Retinoid X Receptor beta (RXRb), RXRB (gene 6257) (UniProt P28702); test: ATG_RXRb_TRANS: Attagene TRANS-FACTORIAL HepG2 Assay for human Retinoid X Receptor beta (RXRb) (AID 2283013)
In short: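 HepG2 cells transiently transfected with multiplexed reporter units driven by GAL4-UAS and exogenous chimeric NR-Gal4 proteins; treated 24 h. Reporter mRNA measured by RT-PCR, 6-FAM labelling and capillary electrophoresis; gain-of-signal fitted versus DMSO baseline.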

[8] = target: human Thyroid Receptor alpha (THRa1), THRA (gene 7067) (UniProt P10827); test: ATG_THRa1_TRANS: Attagene TRANS-FACTORIAL HepG2 Assay for human Thyroid Receptor alpha (THRa1) (AID 2283014)
In short: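 HepG2 cells transiently transfected with multiplexed GAL4-UAS reporter units for exogenous chimeric THRa1-Gal4; reporter mRNA measured 24 h after dosing by RT-PCR, 6-FAM labelling, HpaI digestion and capillary electrophoresis. Gain-of-signal fitted versus DMSO baseline.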

[9] = target: human Vitamin D Receptor (VDR), VDR (gene 7421) (UniProt P11473); test: ATG_VDR_TRANS: Attagene TRANS-FACTORIAL HepG2 Assay for human Vitamin D Receptor (VDR) (AID 2283022)
In short: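 HepG2 cells were transiently transfected with multiple GAL4-UAS reporter units, so signal reflects exogenous chimeric receptor-Gal4 activity. After 24 h compound exposure, reporter mRNA was measured by RT-PCR, fluorescent labelling and capillary electrophoresis, fitted for gain of signal versus DMSO.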

[10] = target: human CYP19A1, CYP19A1 (gene 1588) (UniProt P11511); test: NVS_ADME_hCYP19A1: NovaScreen (NVS) CYP450-related Enzyme Activity (ADME) Assay for human CYP19A1 (AID 2283098);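 note: potency for inhibitors seen as loss of fluorescent enzyme signal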
In short: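 Biochem, cell-free; recombinant enzyme + specific substrate; fluorescence intensity at 0.5 h post-dose; 10 uM duplicate primary, conc. series for actives; acetonitrile = negative control/baseline; positive and negative controls on every plate.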

`CN1CCOCC1` was tested, and the AC50 [1] was inconclusive: 100 µM, the AC50 [2] was inconclusive: 23.9 µM and the outcome [3] was “inactive”. The outcome [4] was “inactive”, the AC50 [5] was inconclusive: 0.174 µM and the outcome [6] was “inactive”. The AC50 [7] was inconclusive: 100 µM.

`CCCCCCCCCCCC[N+](C)(C)C` was tested, and the AC50 [1] was inconclusive: 26.4 µM, the outcome [2] was “inactive” and the AC50 [3] was inconclusive: 144 µM. For the same compound, the outcome [3] was “inactive”, the AC50 [5] was inconclusive: 33.4 µM and inconclusive: 16.2 µM and the AC50 [7] was inconclusive: 58.3 µM. The outcome [7] was “inactive”, the outcome [8] was “inactive” and the AC50 [9] was inconclusive: 180 µM. The AC50 [10] was inconclusive: 10 µM.

`CCCCCCCCCCCCCCCCCC(=O)OCC(CC)CCCC` (configuration not stated) was tested, and the AC50 [1] was inconclusive: 100 µM, the AC50 [2] was inconclusive: 100 µM and the AC50 [3] was inconclusive: 100 µM. For the same compound, the outcome [4] was “inactive”, the AC50 [5] was inconclusive: 23.9 µM and the AC50 [6] was inconclusive: 100 µM. The outcome [7] was “inactive” and the AC50 [8] was inconclusive: 3.78 µM.

`Cc1cc(C)cc(O)c1` was tested, and the AC50 [1] was inconclusive: 102 µM, the AC50 [2] was inconclusive: 2.22 µM and the AC50 [3] was inconclusive: 27.6 µM. The outcome [3] was “inactive”, the AC50 [4] was inconclusive: 102 µM and the outcome [4] was “inactive”. For the same compound, the AC50 [5] was inconclusive: 102 µM and inconclusive: 16.4 µM, the AC50 [6] was inconclusive: 102 µM and the AC50 [7] was inconclusive: 40.9 µM. The outcome [7] was “inactive” and the AC50 [9] was inconclusive: 765 nM and inconclusive: 102 µM.

For `Nc1nc2ncc(CNc3ccc(C(=O)N[C@@H](CCC(=O)O)C(=O)O)cc3)nc2c(=O)[nH]1`, the AC50 [1] was inconclusive: 100 µM, the AC50 [2] was inconclusive: 0.00914 µM and the AC50 [3] was inconclusive: 0.0211 µM. For the same compound, the outcome [4] was “inactive”, the outcome [5] was “inactive” and the outcome [6] was “inactive”. For the same compound, the AC50 [7] was inconclusive: 0.0696 µM.

`O=C(Oc1ccccc1)c1ccccc1C(=O)Oc1ccccc1` was tested, and the AC50 [1] was active: 47.6 µM, the outcome [2] was “inactive” and the AC50 [3] was inconclusive: 100 µM. For the same compound, the AC50 [4] was inconclusive: 100 µM, the AC50 [5] was inconclusive: 100 µM and the AC50 [6] was inconclusive: 0.171 µM. For the same compound, the AC50 [7] was inconclusive: 0.0823 µM and the AC50 [8] was inconclusive: 16.2 µM.

With `COC(OC)(C(=O)c1ccccc1)c1ccccc1` the outcome [1] was “inactive”, the AC50 [2] was active: 0.52 µM and the outcome [3] was “inactive”. For the same compound, the AC50 [4] was inconclusive: 164 µM.

In the case of `CCCCCCCCC=CCCCCCCCC1=NCCN1CCO`, the outcome [1] is reported as “inactive”, the AC50 [2] is reported as inconclusive: 25.8 µM and the outcome [3] is reported as “inactive”. For the same compound, the outcome [4] was “inactive”, the AC50 [5] was inconclusive: 5.7 µM and the AC50 [6] was inconclusive: 24.7 µM. For the same compound, the outcome [7] was “inactive”.

With `OCC(F)(F)C(F)(F)C(F)(F)F` the AC50 [1] was inconclusive: 150 µM, the outcome [2] was “inactive” and the AC50 [3] was inconclusive: 150 µM. The outcome [3] was “inactive”, the AC50 [4] was inconclusive: 150 µM and the outcome [4] was “inactive”. For the same compound, the AC50 [5] was inconclusive: 150 µM, the outcome [6] was “inactive” and the AC50 [8] was inconclusive: 150 µM. The AC50 [9] was inconclusive: 150 µM and inconclusive: 35 µM.

With `CC1=C(/C=C/C(C)=C/C=C/C(C)=C/C(=O)O)C(C)(C)CCC1` the AC50 [1] was active: 29.6 µM and active: 10.1 µM, the AC50 [2] was active: 19.8 µM and the outcome [2] was “inactive”. For the same compound, the outcome [8] was “inactive”.

`FC(F)(F)C(F)(F)C(F)(F)C(F)(F)C(F)(F)C(F)(F)C(F)(F)C(F)(F)F` was tested, and the AC50 [1] was inconclusive: 150 µM, the AC50 [2] was inconclusive: 150 µM and the AC50 [3] was inconclusive: 150 µM. The AC50 [4] was inconclusive: 150 µM, the outcome [4] was “inactive” and the AC50 [5] was inconclusive: 150 µM. The AC50 [7] was inconclusive: 150 µM and the outcome [8] was “inactive”.
